Primary screen of a compound library

By UniProt entry, the sequences of proteins in these tests, tags left out. Residues count along the entry.
UniProt I6X8D2, whole entry: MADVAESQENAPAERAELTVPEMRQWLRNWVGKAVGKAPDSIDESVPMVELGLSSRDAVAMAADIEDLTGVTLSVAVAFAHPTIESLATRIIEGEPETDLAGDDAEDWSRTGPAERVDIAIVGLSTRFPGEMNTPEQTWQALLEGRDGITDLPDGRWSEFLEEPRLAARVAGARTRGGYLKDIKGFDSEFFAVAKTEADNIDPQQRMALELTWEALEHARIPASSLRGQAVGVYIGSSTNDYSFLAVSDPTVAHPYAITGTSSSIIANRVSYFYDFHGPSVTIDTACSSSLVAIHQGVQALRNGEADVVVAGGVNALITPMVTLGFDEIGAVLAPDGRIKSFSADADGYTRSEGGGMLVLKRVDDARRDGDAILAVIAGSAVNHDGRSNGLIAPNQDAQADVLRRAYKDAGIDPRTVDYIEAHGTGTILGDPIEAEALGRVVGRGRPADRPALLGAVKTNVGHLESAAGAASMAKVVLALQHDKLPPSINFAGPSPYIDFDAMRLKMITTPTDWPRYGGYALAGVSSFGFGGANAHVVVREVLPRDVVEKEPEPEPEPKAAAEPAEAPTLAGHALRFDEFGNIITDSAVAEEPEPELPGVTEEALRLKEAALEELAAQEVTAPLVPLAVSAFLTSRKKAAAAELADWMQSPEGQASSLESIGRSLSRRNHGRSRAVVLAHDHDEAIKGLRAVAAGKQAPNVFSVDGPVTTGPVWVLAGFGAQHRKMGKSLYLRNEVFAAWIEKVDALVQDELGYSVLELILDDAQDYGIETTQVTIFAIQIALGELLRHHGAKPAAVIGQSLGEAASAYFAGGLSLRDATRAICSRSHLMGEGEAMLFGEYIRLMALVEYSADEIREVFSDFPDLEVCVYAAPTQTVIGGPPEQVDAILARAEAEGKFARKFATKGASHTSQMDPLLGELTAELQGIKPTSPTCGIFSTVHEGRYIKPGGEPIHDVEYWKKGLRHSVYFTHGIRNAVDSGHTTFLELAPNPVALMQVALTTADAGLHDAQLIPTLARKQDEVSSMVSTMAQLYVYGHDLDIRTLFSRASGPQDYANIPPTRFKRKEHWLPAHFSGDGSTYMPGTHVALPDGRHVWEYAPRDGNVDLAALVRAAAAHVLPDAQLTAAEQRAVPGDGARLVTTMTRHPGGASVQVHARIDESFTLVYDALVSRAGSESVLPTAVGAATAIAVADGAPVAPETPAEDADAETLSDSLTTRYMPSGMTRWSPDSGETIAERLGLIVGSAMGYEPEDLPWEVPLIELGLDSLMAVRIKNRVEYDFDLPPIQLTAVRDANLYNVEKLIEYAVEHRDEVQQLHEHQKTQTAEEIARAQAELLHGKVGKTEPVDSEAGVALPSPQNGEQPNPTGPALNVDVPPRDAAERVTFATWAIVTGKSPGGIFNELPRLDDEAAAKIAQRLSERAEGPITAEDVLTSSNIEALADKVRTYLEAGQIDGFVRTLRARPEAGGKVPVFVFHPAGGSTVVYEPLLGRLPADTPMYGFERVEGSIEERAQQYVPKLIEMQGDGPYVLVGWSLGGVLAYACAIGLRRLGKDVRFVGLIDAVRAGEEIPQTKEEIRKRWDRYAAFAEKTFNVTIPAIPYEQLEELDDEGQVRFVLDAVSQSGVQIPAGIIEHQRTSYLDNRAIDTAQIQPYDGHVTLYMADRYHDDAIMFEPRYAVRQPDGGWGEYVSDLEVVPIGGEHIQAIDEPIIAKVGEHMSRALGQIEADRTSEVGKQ
UniProt Q8IDJ8, 1-583: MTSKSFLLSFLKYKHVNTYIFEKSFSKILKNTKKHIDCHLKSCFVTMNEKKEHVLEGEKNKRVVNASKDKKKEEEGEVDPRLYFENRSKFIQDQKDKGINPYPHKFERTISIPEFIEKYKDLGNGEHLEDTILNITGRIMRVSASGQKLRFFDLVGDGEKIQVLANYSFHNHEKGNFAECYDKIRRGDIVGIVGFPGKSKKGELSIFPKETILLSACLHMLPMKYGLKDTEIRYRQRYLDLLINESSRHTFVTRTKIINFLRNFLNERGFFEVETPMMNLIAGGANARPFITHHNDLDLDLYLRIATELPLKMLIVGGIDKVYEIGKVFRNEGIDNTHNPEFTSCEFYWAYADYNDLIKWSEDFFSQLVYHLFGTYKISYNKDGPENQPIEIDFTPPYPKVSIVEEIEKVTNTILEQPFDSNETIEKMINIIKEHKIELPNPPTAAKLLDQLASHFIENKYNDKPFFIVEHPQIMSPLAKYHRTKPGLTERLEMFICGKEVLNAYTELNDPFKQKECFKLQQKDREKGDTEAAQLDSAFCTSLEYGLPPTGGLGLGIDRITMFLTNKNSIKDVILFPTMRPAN
UniProt A4I591, 1-473: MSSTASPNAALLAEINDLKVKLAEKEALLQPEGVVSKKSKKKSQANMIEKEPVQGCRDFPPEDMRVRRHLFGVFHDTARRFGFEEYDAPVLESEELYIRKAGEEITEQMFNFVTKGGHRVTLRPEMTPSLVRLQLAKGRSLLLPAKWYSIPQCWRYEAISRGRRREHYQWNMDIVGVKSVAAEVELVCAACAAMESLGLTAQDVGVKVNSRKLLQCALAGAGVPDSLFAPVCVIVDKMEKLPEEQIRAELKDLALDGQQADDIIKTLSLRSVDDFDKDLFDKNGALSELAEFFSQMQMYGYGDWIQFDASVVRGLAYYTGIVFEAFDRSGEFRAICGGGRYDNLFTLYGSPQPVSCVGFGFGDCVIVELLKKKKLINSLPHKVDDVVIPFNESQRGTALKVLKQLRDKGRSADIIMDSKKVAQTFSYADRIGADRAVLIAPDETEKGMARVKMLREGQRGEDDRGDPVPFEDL
UniProt P9WFT3, whole entry: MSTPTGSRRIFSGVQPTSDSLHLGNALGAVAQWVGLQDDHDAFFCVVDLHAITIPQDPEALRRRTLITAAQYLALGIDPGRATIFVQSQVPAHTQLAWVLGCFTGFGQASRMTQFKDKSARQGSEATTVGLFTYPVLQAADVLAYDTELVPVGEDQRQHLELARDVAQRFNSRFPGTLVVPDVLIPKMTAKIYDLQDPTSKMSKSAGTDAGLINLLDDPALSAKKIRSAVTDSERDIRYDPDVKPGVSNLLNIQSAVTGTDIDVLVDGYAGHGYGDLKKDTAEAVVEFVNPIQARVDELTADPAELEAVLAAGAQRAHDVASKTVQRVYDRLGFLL

The values are deposited in ChEMBL (CHEMBL3988442, “University of Dundee, Small-Polar-MMV Screening Library” (2021)).

Pks13 thioesterase: 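Enzyme assay of the thioesterase domain of polyketide synthase 13; the read-out is not stated. Target: Polyketide synthase Pks13, Mycobacterium tuberculosis (UniProt I6X8D2). Concentration: 30 µM. Higher reads as stronger inhibition (inferred from which compounds were picked for retests). Size under these conditions: about 67,000 compounds, about 300 of them at 50% or above in at least one test.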
PfKRS1: 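Lysine-tRNA ligase, Plasmodium falciparum 3D7 (UniProt Q8IDJ8). Enzyme assay of the cytosolic lysyl-tRNA synthetase in 384-well plates, read by luminescence. Compounds at 30 µM. Higher reads as stronger inhibition, judged from the few compounds that gave an IC50. Size under these conditions: about 69,000 compounds, about 49 of them at 50% or above in at least one test.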
LiHisRS: 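Enzyme assay of histidyl-tRNA synthetase; the read-out is not stated. Target: Histidine-tRNA ligase, Leishmania infantum (UniProt A4I591). Concentration: 30 µM. Higher reads as stronger inhibition (inferred: compounds with an IC50 in retests scored well above the rest). The assay is labelled LdHisRS but filed under L. infantum. About 69,000 compounds were tested under these conditions; 0.6% (about 410) showed 50% or more at least once.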
MtTrpRS: 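Tryptophan-tRNA ligase, Mycobacterium tuberculosis (UniProt P9WFT3). Enzyme assay of tryptophanyl-tRNA synthetase; the read-out is not stated. Tested at 10 µM. Direction is not recorded; retested compounds ran higher, which suggests that high means inhibition. Size under these conditions: about 65,000 compounds, about 64 of them at 50% or above in at least one test.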

Results are given as percent effect.
How 0% and 100% were set is not recorded. Most values in the screen are low, and negative values occur.
The compounds are a random part of those screened.
A dash means the value is not listed here; it may have been measured.

| SMILES | Pks13 thioesterase | PfKRS1 | LiHisRS | MtTrpRS |
|---|---|---|---|---|
| `Cn1cc(C(=O)N2CCCC2CCc2ccccc2)cn1` (configuration not stated) | -5.133 | 2.628 | 0.8772 | -6.95 |
| `Cn1cc(CC(=O)N2CCCC(c3cc(C(F)(F)F)[nH]n3)C2)cn1` (configuration not stated) | -18.68 | 0.4372 | -4 | 8.668 |
| `CC(C)C(=O)NS(=O)(=O)c1ccc(C#N)cc1C(F)(F)F` | -4.309 | 3.48 | 12.5 | -8.55 |
| `O=S(=O)(C1CC1)N1C[C@H](Oc2ccccn2)[C@H]2OCCC[C@H]21` | -30.13 | 0.8802 | 7.965 | -4.701 |
| `CO[C@@H]1CCN(S(=O)(=O)c2cn(C)cn2)[C@H]1Cc1ccccc1` | -24.11 | 5.827 | 25 | -3.625 |
| `Cc1ccc(CN2CCc3onc(COc4cccnc4)c3C2)s1` | 7.953 | 1.417 | 17.95 | -0.8299 |
| `Cc1noc(C)c1CN1CCC2(CC1)CCN(C(=O)c1cscn1)C2` | -17.35 | -0.2347 | 21.05 | 12.33 |
| `CC(C)c1ccc(O)c(C(=O)N2CCN(Cc3cscn3)CC2)c1` | -12.57 | 3.961 | 18.46 | -1.069 |
| `Cn1cc(C(=O)N2CC[C@@H]3[C@@H]2CCN3Cc2cccc(C#N)c2)cn1` | 8.465 | -2.249 | 3 | -2.047 |
| `CCNC(=O)[C@@H]1C[C@@H](N)CN1C(=O)c1[nH]c2ccccc2c1CC` | -23.75 | 0.5686 | 1.77 | 3.265 |
| `Cc1[nH]c(=O)[nH]c(=O)c1CC(=O)N1CCC(Oc2ccc(F)cc2)CC1` | - | 1.913 | 15.08 | 3.659 |
| `CNC(=O)NC(=O)CN(C)C(c1cccnc1)c1ccc(F)cc1F` (configuration not stated) | -11.08 | 4.682 | 16.13 | -2.828 |
| `CCOC(=O)c1nnc2ccccc2c1N1CCOC(C)(C)C1` | 3.824 | -3.507 | -1.075 | 5.154 |
| `CN(C)C(=O)[C@@]12CCO[C@@H]1CCN(Cc1ccc3c(c1)OCO3)C2` | -9.758 | 3.365 | 0 | - |
| `N#Cc1cc(F)c(NCc2ccc(F)cc2)c(F)c1` | 19.48 | 1.886 | 5.128 | 2.142 |
| `Cc1noc(C)c1CN(C)C(=O)Cn1c(=O)n(C)c2ccccc21` | -0.9329 | 0.2505 | 21.95 | -0.5939 |
| `CCn1c(C(=O)N2CCN(CC(C)O)CC2)cc2ccccc21` (configuration not stated) | -18.62 | -1.751 | 21.92 | 0.2398 |
| `Cc1ccc(CN(CCCn2ccnc2)Cc2c[nH]nc2C(C)(C)C)s1` | -27.35 | -0.1306 | 20 | 0.4058 |
| `NC(=O)C1CN(C(=O)Nc2ccccc2Oc2ccccc2Cl)CCO1` (configuration not stated) | -6.147 | 2.131 | 10.71 | -1.3 |
| `CCN(CC)Cc1cc(C(=O)N2CCC3(CCN(C)CC3)C2)c(C)o1` | -19.79 | 11.41 | 11.84 | 0.09139 |
| `CN(CCC#N)C(=O)Cn1nnnc1C(C)(C)C` | -33.89 | 1.091 | 15.79 | 0.07003 |
| `CN(CC1CCCCO1)C(=O)c1ccnc(OC2CCC2)c1` (configuration not stated) | -4.888 | -5.481 | 3.846 | -3.173 |
| `COc1cccc(CNCc2c(C(C)C)nn(C)c2N(C)C)c1` | -0.9418 | 1.388 | 12.84 | -3.64 |
| `COc1ccc(-c2nnc(CN3CCNC(=O)C3)o2)cc1` | -18.36 | 2.433 | 15.15 | 1.385 |
| `O=C1CCNc2ncc(-c3cccc(Cl)c3)cc2CN1C1CC1` | 4.802 | 3.452 | 22.45 | - |
| `N[C@@H]1CC[C@@H]1NC(=O)c1ccccc1OC(F)(F)C(F)F` | -8.748 | 3.288 | 9.211 | -0.6399 |
| `CN(C)c1cc(C2CCCN2)ccn1` (configuration not stated) | 2.377 | 4.005 | 7.042 | -5.277 |
| `CSc1ccc(C(CNC(=O)C2CC2)N2CCc3sccc3C2)cc1` (configuration not stated) | -39.23 | 5.537 | 14.29 | 0.9534 |
| `O=C1NCCN(C(=O)c2cn3ccsc3n2)C1c1cccc(F)c1` (configuration not stated) | -3.729 | -4.145 | 16.67 | 13.58 |
| `CSCc1cccc(S(=O)(=O)N2CCCC2)c1` | -9.421 | -0.3136 | 13.79 | 3.109 |
| `CC(C)c1n[nH]c(C2CN(Cc3ccno3)CCO2)n1` (configuration not stated) | -4.217 | 2.748 | 22.58 | 5.326 |
| `NCCC(=O)N1CCC2(CC1)CN(C(=O)Cc1ccc(Cl)cc1)CCO2` | -3.063 | 1.914 | 12.41 | -1.296 |
| `COc1cccc(CN2CCC(O)(c3ccc(C)cn3)CC2)c1OC` | 23.59 | 0.6887 | -6.579 | -3.653 |
| `CC(C)CN1CCn2c(COCc3cccnc3)nnc2C1` | -32.96 | 0.8038 | 17.14 | 1.139 |
| `Cc1cc(C)n(CC2CN(CCOc3cccc(C#N)c3)CCO2)n1` (configuration not stated) | -8.637 | 5.147 | -492.4 | -0.2924 |
| `Cc1ccc(S(C)(=O)=O)cc1C(=O)NS(=O)(=O)c1cccs1` | -13.54 | 4.69 | 10.96 | -4.941 |
| `CN(Cc1cnn(C)c1)CC1CCCN1c1cccnn1` (configuration not stated) | -20.24 | -0.8534 | 4.425 | 2.508 |
| `Cc1ccn(-c2ccc(C(=O)N3CCCC(n4ccnc4)C3)cc2)n1` (configuration not stated) | -39.79 | -0.2726 | 3.371 | -4.17 |
| `O=C(O)[C@]12CCCN(Cc3ccncc3)C[C@H]1CN(c1ncccn1)C2` | 25.73 | 1.204 | 2.778 | -3.625 |
| `Cc1cnn(CC2CCCCN2c2ncnc3ccccc23)c1` (configuration not stated) | -19.34 | 1.768 | 9.244 | -5.133 |
| `CCc1nnc(CNC2CCN(c3ncnc4c(C)csc34)CC2)s1` | -19.35 | 7.905 | 20 | 0.942 |
| `CCS(=O)(=O)N1CCCn2nnc(Cn3cccc3)c2C1` | 4.986 | 3.992 | 17.31 | - |
| `CC(C(=O)NCc1ccc(N2CCNC(=O)C2)cc1)c1cccs1` (configuration not stated) | 0.6395 | 0.6804 | 20.87 | 6.524 |

Once more, the final 5:

SMILES	Pks13 thioesterase	PfKRS1	LiHisRS	MtTrpRS
O=C(O)[C@]12CCCN(Cc3ccncc3)C[C@H]1CN(c1ncccn1)C2	25.73	1.204	2.778	-3.625
Cc1cnn(CC2CCCCN2c2ncnc3ccccc23)c1 (configuration not stated)	-19.34	1.768	9.244	-5.133
CCc1nnc(CNC2CCN(c3ncnc4c(C)csc34)CC2)s1	-19.35	7.905	20	0.942
CCS(=O)(=O)N1CCCn2nnc(Cn3cccc3)c2C1	4.986	3.992	17.31	-
CC(C(=O)NCc1ccc(N2CCNC(=O)C2)cc1)c1cccs1 (configuration not stated)	0.6395	0.6804	20.87	6.524